Test results: paper PMC9997211
Results are given in words; binding and its absence hold for the method and conditions named. In cells and extracts the contact can be indirect. Here binding means that the protein was enriched with, or labelled near, the bait; the list need not be complete.

Molecular target: T1, ZEB1 (bait of the mass spectrometric analysis of ZEB1-interactive proteins) (UniProt P37275)
T1 sequence: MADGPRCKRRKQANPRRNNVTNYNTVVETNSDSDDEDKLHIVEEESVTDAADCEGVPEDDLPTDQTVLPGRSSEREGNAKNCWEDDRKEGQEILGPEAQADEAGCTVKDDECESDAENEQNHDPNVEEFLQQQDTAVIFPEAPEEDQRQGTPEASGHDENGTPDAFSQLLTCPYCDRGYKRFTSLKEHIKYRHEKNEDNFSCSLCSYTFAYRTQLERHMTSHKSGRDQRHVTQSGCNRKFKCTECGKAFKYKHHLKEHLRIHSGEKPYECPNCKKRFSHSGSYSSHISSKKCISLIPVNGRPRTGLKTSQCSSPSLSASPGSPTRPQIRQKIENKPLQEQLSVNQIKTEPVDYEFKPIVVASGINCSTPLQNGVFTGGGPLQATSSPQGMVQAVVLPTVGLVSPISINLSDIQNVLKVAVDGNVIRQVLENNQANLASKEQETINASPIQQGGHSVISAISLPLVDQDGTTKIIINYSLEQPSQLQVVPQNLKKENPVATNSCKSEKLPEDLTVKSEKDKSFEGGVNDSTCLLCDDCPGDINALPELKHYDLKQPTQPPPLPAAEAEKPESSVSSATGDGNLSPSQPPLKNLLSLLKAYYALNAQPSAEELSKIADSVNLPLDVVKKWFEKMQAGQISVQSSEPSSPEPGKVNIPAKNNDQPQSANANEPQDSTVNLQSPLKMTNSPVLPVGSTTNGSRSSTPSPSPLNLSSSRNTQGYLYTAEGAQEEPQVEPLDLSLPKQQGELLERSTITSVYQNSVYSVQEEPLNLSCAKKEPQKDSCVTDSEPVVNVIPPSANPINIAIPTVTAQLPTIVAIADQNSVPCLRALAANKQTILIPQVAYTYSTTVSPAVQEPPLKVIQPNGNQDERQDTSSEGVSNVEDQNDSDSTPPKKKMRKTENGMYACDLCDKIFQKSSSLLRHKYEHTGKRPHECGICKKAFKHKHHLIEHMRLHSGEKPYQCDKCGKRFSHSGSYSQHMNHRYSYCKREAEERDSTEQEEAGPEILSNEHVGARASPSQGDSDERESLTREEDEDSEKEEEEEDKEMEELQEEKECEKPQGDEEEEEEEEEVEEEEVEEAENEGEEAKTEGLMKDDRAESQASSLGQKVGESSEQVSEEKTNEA
Assay: affinity purification with mass spectrometry; mass spectrometric analysis of ZEB1-interactive proteins whose interactions are regulated by the binding of Zn2+ to ZEB1; details only in Supplementary Figure 2A

B1: ZEB2 (protein, UniProt O60315 1-1214)
chain: MKQPIMADGPRCKRRKQANPRRKNVVNYDNVVDTGSETDEEDKLHIAEDDGIANPLDQETSPASVPNHESSPHVSQALLPREEEEDEIREGGVEHPWHNNEILQASVDGPEEMKEDYDTMGPEATIQTAINNGTVKNANCTSDFEEYFAKRKLEERDGHAVSIEEYLQRSDTAIIYPEAPEELSRLGTPEANGQEENDLPPGTPDAFAQLLTCPYCDRGYKRLTSLKEHIKYRHEKNEENFSCPLCSYTFAYRTQLERHMVTHKPGTDQHQMLTQGAGNRKFKCTECGKAFKYKHHLKEHLRIHSGEKPYECPNCKKRFSHSGSYSSHISSKKCIGLISVNGRMRNNIKTGSSPNSVSSSPTNSAITQLRNKLENGKPLSMSEQTGLLKIKTEPLDFNDYKVLMATHGFSGTSPFMNGGLGATSPLGVHPSAQSPMQHLGVGMEAPLLGFPTMNSNLSEVQKVLQIVDNTVSRQKMDCKAEEISKLKGYHMKDPCSQPEEQGVTSPNIPPVGLPVVSHNGATKSIIDYTLEKVNEAKACLQSLTTDSRRQISNIKKEKLRTLIDLVTDDKMIENHNISTPFSCQFCKESFPGPIPLHQHERYLCKMNEEIKAVLQPHENIVPNKAGVFVDNKALLLSSVLSEKGMTSPINPYKDHMSVLKAYYAMNMEPNSDELLKISIAVGLPQEFVKEWFEQRKVYQYSNSRSPSLERSSKPLAPNSNPPTKDSLLPRSPVKPMDSITSPSIAELHNSVTNCDPPLRLTKPSHFTNIKPVEKLDHSRSNTPSPLNLSSTSSKNSHSSSYTPNSFSSEELQAEPLDLSLPKQMKEPKSIIATKNKTKASSISLDHNSVSSSSENSDEPLNLTFIKKEFSNSNNLDNKSTNPVFSMNPFSAKPLYTALPPQSAFPPATFMPPVQTSIPGLRPYPGLDQMSFLPHMAYTYPTGAATFADMQQRRKYQRKQGFQGELLDGAQDYMSGLDDMTDSDSCLSRKKIKKTESGMYACDLCDKTFQKSSSLLRHKYEHTGKRPHQCQICKKAFKHKHHLIEHSRLHSGEKPYQCDKCGKRFSHSGSYSQHMNHRYSYCKREAEEREAAEREAREKGHLEPTELLMNRAYLQSITPQGYSDSEERESMPRDGESEKEHEKEGEDGYGKLGRQDGDEEFEEEEEESENKSMDTDPETIRDEEETGDHSMDDSSEDGKMETKSDHEEDNMEDGM
  binding: binds
